The nature of the series: general procedure: Fmoc solid-phase peptide synthesis; H-Rink Amide. Conditions: whole synthesis.
For “DOTA-D-Dap[(4-SiFA)Bz]-D-Glu-L-Ala-L-Tyr-Gly-L-Trp-L-Nle-L-Asp-L-1-NaI”, the isolated yield was determined as 6%.

“DOTA-D-Dap[(5-SiFA)Ip]-D-glu-L-Ala-L-Tyr-Gly-L-Trp-L-Nle-L-Asp-L-1-NaI” returned an isolated yield of 5%.

Regarding “DOTA-D-Dap[(3-SiFA)Bz]-D-Glu-L-Ala-L-Tyr-Gly-L-Trp-L-Nle-L-Asp-L-1-NaI”, the isolated yield came out at 9%.

Values taken from US20260027244A1 (Technische Universität München, priority 2022, published 2026).
